From paper doi:10.1101/2021.03.20.435662

Amino acid sequences for entries named in this document (tags omitted). A change or cut given only in a name is not applied to a line headed by its entry.
UniProt F4K465: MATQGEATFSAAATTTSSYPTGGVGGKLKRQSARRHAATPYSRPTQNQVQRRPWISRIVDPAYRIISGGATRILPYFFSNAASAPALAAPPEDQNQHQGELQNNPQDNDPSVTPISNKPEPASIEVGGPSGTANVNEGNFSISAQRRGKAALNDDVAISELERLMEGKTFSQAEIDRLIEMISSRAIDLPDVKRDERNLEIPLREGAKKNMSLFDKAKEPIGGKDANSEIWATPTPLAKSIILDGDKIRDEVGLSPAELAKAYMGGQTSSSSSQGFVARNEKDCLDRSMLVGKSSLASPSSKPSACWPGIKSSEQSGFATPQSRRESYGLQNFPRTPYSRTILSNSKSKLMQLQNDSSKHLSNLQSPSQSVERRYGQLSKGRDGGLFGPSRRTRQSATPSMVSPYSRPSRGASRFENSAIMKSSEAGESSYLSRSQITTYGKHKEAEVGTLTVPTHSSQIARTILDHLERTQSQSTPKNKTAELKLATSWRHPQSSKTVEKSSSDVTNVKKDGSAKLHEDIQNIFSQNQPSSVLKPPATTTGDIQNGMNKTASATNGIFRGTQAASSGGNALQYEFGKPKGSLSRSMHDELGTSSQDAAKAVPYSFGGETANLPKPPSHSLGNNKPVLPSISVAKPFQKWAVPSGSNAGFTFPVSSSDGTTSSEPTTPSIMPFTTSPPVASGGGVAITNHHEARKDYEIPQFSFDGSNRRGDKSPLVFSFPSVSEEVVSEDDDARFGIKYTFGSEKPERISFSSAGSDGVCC

Key:
[1] = molecular target: T1, CRWN2, BiFC fusion (half of YFP) (Arabidopsis thaliana) (UniProt Q9SAF6); assay: split reporter
T1 sequence: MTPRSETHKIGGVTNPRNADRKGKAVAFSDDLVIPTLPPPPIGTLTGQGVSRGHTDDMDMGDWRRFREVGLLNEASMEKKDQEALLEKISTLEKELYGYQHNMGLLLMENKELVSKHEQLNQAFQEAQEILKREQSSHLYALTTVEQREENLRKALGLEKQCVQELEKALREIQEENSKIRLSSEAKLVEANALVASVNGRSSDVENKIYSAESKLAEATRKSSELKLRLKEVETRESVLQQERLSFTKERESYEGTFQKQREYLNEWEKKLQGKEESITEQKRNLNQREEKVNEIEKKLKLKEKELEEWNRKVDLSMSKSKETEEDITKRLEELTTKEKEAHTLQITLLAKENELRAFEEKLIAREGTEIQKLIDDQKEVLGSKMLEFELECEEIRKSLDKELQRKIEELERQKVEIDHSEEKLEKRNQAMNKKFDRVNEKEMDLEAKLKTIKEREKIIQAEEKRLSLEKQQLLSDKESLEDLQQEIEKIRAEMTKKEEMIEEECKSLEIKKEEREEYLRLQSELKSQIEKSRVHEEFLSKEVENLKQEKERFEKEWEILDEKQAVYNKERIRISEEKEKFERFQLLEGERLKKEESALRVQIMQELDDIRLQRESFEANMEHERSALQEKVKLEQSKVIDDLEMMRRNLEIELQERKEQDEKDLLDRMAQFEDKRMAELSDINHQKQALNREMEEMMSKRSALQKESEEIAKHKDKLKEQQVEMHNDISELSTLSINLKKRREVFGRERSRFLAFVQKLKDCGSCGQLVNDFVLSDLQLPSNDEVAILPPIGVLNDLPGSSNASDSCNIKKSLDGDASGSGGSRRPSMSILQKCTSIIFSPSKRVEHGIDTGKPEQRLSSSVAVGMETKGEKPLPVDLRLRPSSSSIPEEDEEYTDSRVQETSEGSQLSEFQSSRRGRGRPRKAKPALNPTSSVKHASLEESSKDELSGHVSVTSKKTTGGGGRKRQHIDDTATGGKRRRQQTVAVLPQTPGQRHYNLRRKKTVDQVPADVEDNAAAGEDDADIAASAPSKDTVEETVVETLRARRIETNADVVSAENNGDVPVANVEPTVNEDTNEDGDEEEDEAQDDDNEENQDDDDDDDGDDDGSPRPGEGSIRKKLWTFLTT

[2] = molecular target: T2, CROWDED NUCLEI 2 (CRWN2), yeast two-hybrid fusion (Arabidopsis thaliana) (UniProt Q9SAF6); assay: two-hybrid
T2 sequence: T1 sequence

[3] = molecular target: T3, CROWDED NUCLEI 1 (CRWN1), yeast two-hybrid fusion (Arabidopsis thaliana) (UniProt F4HRT5); assay: two-hybrid
T3 sequence: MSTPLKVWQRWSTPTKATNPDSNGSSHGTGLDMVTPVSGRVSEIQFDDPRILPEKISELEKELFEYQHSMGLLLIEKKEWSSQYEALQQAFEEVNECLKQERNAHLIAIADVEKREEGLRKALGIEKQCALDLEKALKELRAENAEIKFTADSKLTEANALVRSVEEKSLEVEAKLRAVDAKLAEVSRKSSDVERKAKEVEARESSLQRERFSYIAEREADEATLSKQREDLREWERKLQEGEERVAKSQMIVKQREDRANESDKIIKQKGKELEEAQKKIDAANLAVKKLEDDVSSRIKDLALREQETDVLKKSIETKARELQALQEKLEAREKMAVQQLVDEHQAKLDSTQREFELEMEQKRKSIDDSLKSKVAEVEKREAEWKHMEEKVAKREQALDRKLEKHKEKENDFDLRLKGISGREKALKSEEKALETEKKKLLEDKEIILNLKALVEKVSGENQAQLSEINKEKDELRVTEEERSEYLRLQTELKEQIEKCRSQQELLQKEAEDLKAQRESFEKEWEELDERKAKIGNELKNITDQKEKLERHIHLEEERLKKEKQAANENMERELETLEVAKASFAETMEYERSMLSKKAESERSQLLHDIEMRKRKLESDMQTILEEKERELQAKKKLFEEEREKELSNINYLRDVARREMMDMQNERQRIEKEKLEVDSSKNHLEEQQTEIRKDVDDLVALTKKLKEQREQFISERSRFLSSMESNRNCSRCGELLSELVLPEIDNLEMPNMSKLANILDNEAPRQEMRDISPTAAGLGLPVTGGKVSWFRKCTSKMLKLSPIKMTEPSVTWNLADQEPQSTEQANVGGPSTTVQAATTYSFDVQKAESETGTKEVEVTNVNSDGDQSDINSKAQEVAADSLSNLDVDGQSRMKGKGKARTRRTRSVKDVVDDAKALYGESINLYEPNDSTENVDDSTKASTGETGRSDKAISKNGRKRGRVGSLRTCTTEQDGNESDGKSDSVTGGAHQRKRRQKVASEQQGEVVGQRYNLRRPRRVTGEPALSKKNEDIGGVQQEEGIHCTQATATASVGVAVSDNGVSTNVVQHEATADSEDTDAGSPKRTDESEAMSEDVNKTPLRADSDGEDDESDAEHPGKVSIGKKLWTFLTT

[4] = molecular target: T4, CROWDED NUCLEI 3 (CRWN3), yeast two-hybrid fusion (Arabidopsis thaliana) (UniProt Q9CA42); assay: two-hybrid
T4 sequence: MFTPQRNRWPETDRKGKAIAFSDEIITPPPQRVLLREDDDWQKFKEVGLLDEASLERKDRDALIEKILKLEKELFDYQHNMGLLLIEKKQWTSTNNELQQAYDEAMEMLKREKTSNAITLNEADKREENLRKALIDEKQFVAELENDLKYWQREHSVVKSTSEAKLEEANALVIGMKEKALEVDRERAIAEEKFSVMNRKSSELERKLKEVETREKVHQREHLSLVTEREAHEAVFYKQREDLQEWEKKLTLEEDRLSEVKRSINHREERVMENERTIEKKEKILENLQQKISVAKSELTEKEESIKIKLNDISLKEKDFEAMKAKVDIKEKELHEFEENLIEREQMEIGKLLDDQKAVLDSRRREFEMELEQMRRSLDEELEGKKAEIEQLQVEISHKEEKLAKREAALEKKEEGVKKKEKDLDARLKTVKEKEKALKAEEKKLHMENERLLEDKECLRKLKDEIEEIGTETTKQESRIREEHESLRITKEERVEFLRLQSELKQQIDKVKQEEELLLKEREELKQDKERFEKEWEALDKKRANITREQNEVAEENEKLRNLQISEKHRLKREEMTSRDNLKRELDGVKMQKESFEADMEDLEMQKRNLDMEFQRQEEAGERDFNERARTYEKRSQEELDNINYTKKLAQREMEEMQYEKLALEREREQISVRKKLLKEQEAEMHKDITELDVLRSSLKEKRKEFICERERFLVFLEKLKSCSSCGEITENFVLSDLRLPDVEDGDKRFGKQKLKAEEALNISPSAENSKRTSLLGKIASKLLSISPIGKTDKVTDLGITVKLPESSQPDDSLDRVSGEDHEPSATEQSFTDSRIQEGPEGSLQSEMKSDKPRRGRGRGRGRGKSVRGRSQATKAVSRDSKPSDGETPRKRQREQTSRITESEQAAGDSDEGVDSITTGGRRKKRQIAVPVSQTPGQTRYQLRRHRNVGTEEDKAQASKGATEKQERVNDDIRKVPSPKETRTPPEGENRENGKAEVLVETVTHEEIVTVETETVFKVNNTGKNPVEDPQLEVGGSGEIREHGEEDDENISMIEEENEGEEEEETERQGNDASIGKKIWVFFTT

[5] = molecular target: T5, CROWDED NUCLEI 4 (CRWN4), yeast two-hybrid fusion (Arabidopsis thaliana) (UniProt Q9FLH0); assay: two-hybrid
T5 sequence: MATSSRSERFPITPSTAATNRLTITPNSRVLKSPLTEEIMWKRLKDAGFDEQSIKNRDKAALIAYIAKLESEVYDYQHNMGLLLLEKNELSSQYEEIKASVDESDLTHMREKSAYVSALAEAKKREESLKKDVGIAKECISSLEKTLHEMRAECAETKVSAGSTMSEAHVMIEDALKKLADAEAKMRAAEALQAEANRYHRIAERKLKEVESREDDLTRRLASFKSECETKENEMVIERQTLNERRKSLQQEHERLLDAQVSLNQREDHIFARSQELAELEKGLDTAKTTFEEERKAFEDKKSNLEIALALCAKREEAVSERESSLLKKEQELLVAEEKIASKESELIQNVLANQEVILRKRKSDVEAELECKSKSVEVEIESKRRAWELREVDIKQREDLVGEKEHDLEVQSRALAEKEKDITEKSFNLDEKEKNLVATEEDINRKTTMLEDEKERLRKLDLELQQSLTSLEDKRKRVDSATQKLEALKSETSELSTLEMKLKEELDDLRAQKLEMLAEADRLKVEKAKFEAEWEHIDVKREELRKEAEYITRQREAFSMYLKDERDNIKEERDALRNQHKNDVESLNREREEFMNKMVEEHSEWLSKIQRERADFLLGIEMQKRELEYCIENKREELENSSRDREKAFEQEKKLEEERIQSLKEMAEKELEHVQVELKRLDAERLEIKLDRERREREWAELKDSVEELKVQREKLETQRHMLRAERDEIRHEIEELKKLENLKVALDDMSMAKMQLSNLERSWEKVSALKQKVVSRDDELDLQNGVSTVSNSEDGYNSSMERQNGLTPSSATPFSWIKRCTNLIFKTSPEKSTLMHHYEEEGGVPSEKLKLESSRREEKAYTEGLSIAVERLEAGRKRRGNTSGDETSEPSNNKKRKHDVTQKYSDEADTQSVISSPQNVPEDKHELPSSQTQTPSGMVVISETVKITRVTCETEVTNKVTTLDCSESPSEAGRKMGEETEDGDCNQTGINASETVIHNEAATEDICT

For “NUP82, BiFC fusion (half of YFP) (from UniProt F4K465)”, the binding [1] was “binds”.
In the case of “NUP82, yeast two-hybrid fusion (from UniProt F4K465)”, the binding [2] is reported as “binds”, the binding [3] is reported as “binds” and the binding [4] is reported as “binds”. For the same substance, the binding [5] was “no binding”.

These are yes or no findings as the source states them, for the method shown. For some assays here: Binding calls can cover weak binding; strength is not graded here. Where a sequence is shown, tags or fusion partners need not be part of it. For some assays here: In cells and extracts the contact can be indirect.
